This test has as its system HEK293A TEAD-LUC reporter. Kind of test: TEAD-luciferase reporter activity (YAP activation), robust Z score vs plate; higher = stronger YAP/TEAD activation. The following applies: 24 h.

Where a name gives a salt, the structure may show the parent alone. Some of the results follow. Repeats in this data set agree poorly, so a single value says little.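 The human kidney-derived cells carry a stably integrated construct of eight TEAD-binding elements driving luciferase, read by luminescence in a drug-repurposing library screen. A compound counts as a hit when its signal is more than five robust Z scores above the plate mean.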

For `Cc1ccc(C23CNCC2C3)cc1` (configuration not stated) [Bicifadine], the TEAD-luciferase reporter activity is, setting by setting: (compound concentration: 200 nM) inactive: -1.94; (compound concentration: 2 uM) inactive: -2.43; (compound concentration: 10 uM) inactive: 1.72.
Taken in the same sequence, the figures for `O=c1c2ccccc2[se]n1CCn1[se]c2ccccc2c1=O` [Ethaselen-1] were inactive: 0.649, inactive: -0.116 and inactive: -0.445.
For `CCC(C)=O` [Methyl Ethyl Ketone], the TEAD-luciferase reporter activity runs as follows: (compound concentration: 2 uM) inactive: -0.892; (compound concentration: 10 uM) inactive: -0.171.
Regarding `O=C(O)C(Cl)Cl`, the TEAD-luciferase reporter activity was inactive: 0.646 (compound concentration: 200 nM), inactive: 0.0263 (compound concentration: 2 uM) and inactive: 1.1 (compound concentration: 10 uM).
Taken in the same sequence, the figures for `CC(=O)NCC1CC(c2ccc(C3=CCNCC3)cc2)=NO1` (configuration not stated) were inactive: -0.469, inactive: 0.47 and inactive: 2.21.
Taken in the same sequence, the figures for `c1cnc2c(c1)CNC2` were inactive: -0.142, inactive: 0.823 and inactive: -0.244.
Consider `CC(C)[C@@H](CN1CC[C@@](C)(c2cccc(O)c2)[C@@H](C)C1)NC(=O)[C@H]1Cc2ccc(O)cc2CN1` [JDTic dihydrochloride], for which the TEAD-luciferase reporter activity reads like this: (compound concentration: 200 nM) inactive: -1.17; (compound concentration: 2 uM) inactive: 1.69; (compound concentration: 10 uM) active: 7.87.
For `CCN(CC)C(=O)c1ccc(C2=CC3(CCNCC3)Oc3cccc(O)c32)cc1`, the TEAD-luciferase reporter activity is inactive: 0.414 (compound concentration: 200 nM), inactive: -1.32 (compound concentration: 2 uM) and inactive: -2.49 (compound concentration: 10 uM).
On the same counts, the results for `CC(Cc1ccccc1)NCCC(c1ccccc1)c1ccccc1` (configuration not stated) are inactive: -1.16, inactive: -0.412 and inactive: 0.698.
As for `Cc1ccc(S(=O)(=O)N2CCCC2C(=O)N2CCC(N3CCCC3=O)CC2)cc1` (configuration not stated), the TEAD-luciferase reporter activity (compound concentration: 200 nM) is inactive: -0.775 and the TEAD-luciferase reporter activity (compound concentration: 10 uM) is inactive: 0.907.
Turning to `C[C@]12CC[C@H]3[C@@H](CCC4=CC(=O)CC[C@@]43C)[C@@H]1CC[C@@H]2O[C@@H]1OC(CO)[C@@H](O)[C@H](O)C1O` (some centres not stated) [Testosterone-Glucoside], the TEAD-luciferase reporter activity by setting is: (compound concentration: 200 nM) inactive: -1.22; (compound concentration: 2 uM) inactive: -2.05; (compound concentration: 10 uM) inactive: -0.949.
`CN[C@]1(c2ccccc2)CC[C@]2(CC1)OCCc1c3cc(F)ccc3[nH]c12` [lexanopadol]: the TEAD-luciferase reporter activity (compound concentration: 200 nM) is inactive: -0.32, the TEAD-luciferase reporter activity (compound concentration: 2 uM) is inactive: -0.482 and the TEAD-luciferase reporter activity (compound concentration: 10 uM) was inactive: -0.465.
On the same counts, the results for `C[N+]1(CCC(C(N)=O)(c2ccccc2)c2ccccc2)CCCCC1` are inactive: -0.878, inactive: -1.91 and inactive: -2.31.
On the same counts, the results for `C/C(=C\c1csc(C)n1)[C@@H]1C[C@@H]2O[C@]2(C)CCC[C@H](C)[C@H](O)[C@@H](C)C(=O)C(C)(C)[C@@H](O)CC(=O)O1` [Patupilone] are inactive: -0.465, inactive: -0.901 and inactive: -0.995.
Taken in the same sequence, the figures for `Cc1cc([C@@H]2CCCN2C)on1` were inactive: 0.97, inactive: -1.51 and inactive: -1.22.
As to `CC(C)C[C@H](NC(=O)[C@H](Cc1ccccc1)NC(=O)CNC(=O)[C@@H](C)NC(=O)[C@@H](N)Cc1ccc(O)cc1)C(=O)O` [[D-Ala2]leucine-enkephalin], the TEAD-luciferase reporter activity was inactive: -1.13 (compound concentration: 2 uM) and inactive: 1.24 (compound concentration: 10 uM).
Take `CCCN1C[C@@H](C)[C@](OC(C)=O)(c2ccccc2)C[C@@H]1C`: the TEAD-luciferase reporter activity was inactive: -0.879 (compound concentration: 200 nM), inactive: -0.288 (compound concentration: 2 uM) and inactive: 1.39 (compound concentration: 10 uM).
Taken in the same sequence, the figures for `Clc1cncc(C2CN3CCC2CC3)n1` (configuration not stated) were active: 5.76, inactive: 1.16 and active: 5.09.
Consider `CC(=O)N(C)c1cc(-c2ccnc3c(C(=O)c4cccs4)cnn23)ccc1F` [lorediplon], for which the TEAD-luciferase reporter activity is inactive: 0.501 (compound concentration: 200 nM), inactive: -0.651 (compound concentration: 2 uM) and inactive: -0.635 (compound concentration: 10 uM).
Taken in the same sequence, the figures for `COc1cc(CCNC(C)Cc2cc(OC)ccc2C#Cc2ccccc2)cc(OC)c1` (configuration not stated) were inactive: 1.93, inactive: 0.408 and inactive: 1.81.
On the same counts, the results for `CN1c2ccc(Cl)cc2C(c2ccccc2Cl)=NCC1CO` (configuration not stated) are inactive: 0.343, inactive: -2.32 and inactive: 0.383.
Take `FC(F)(F)c1ccc(C2=CCNCC2)cc1`: the TEAD-luciferase reporter activity was inactive: 0.765 (compound concentration: 200 nM), inactive: -1.78 (compound concentration: 2 uM) and inactive: -1.42 (compound concentration: 10 uM).
On the same counts, the results for `Cc1nc(-c2ccc(-c3ccc(C(=O)N4CCc5cc6c(cc54)C4(CCN(C)CC4)CO6)cc3)c(C)c2)no1` are inactive: -0.857, inactive: -1.22 and inactive: -0.453.
Taken in the same sequence, the figures for `C=C[C@@H]1C2=CCOC(=O)C2=CO[C@H]1O[C@@H]1O[C@H](CO)[C@@H](O)[C@H](O)[C@H]1O` were inactive: -0.531, inactive: 0.845 and inactive: 0.405.
Taken in the same sequence, the figures for `CC(=O)O[C@H]1C[C@H](O[C@H]2[C@@H](O)C[C@H](O[C@H]3[C@@H](O)C[C@H](O[C@H]4CC[C@@]5(C)[C@H](CC[C@@H]6[C@@H]5C[C@@H](O)[C@]5(C)[C@@H](C7=CC(=O)OC7)CC[C@]65O)C4)O[C@@H]3C)O[C@@H]2C)O[C@H](C)[C@H]1O[C@@H]1O[C@H](CO)[C@@H](O)[C@H](O)[C@H]1O` were active: 16.9, inactive: -3.21 and active: 16.4.
For the compound `COP(=O)(OC)N1C[C@H]2C[C@H](C1)c1cccc(=O)n1C2` [Cytisin amidophosphate], the TEAD-luciferase reporter activity was inactive: -1.41 (compound concentration: 200 nM), inactive: -0.182 (compound concentration: 2 uM) and inactive: 0.291 (compound concentration: 10 uM).
Taken in the same sequence, the figures for `CNCC/C=C/c1cncnc1` were inactive: -0.649, inactive: -0.674 and inactive: 0.112.
Taken in the same sequence, the figures for `CC(=O)O[C@H]1CCC2C3CCC4=CC(=O)CC[C@]4(C)C3CC[C@@]21C` (some centres not stated) [Testosterone, Acetate derivative] were inactive: 0.253, inactive: -1.63 and inactive: 1.03.
As to `Cc1ccc(C(=O)N2CCCC2C(=O)N2CCC(N3CCCC3=O)CC2)cc1` (configuration not stated), the TEAD-luciferase reporter activity is inactive: -0.00389 (compound concentration: 200 nM) and inactive: 3 (compound concentration: 10 uM).
On to `COc1cc2c(cc1F)C(c1ccccc1Cl)=NC1=C(C)NNC1=N2`, for which the TEAD-luciferase reporter activity (compound concentration: 200 nM) was inactive: -1.36, the TEAD-luciferase reporter activity (compound concentration: 2 uM) was inactive: -1.13 and the TEAD-luciferase reporter activity (compound concentration: 10 uM) is inactive: 0.247.
Taken in the same sequence, the figures for `CCN1CCC2(CC1)COc1cc3c(cc12)N(C(=O)c1ccc(-c2ccc(-c4nnc(C)o4)cc2C)cc1)CC3` were inactive: -0.506, inactive: 0.848 and inactive: 2.8.
Taken in the same sequence, the figures for `CN1[C@@H]2CC(OC(=O)C(O)(CO)c3ccccc3)C[C@H]1[C@@H]1O[C@H]12` (some centres not stated) were inactive: 1.93, inactive: -1.06 and inactive: 0.225.
`CC(O)C(C)OC(=O)[C@@H]1C[C@@H]2c3cccc4c3c(cn4C(C)C)C[C@H]2N(C)C1` (some centres not stated): the TEAD-luciferase reporter activity reads like this: (compound concentration: 200 nM) inactive: 0.381; (compound concentration: 2 uM) inactive: -1.03; (compound concentration: 10 uM) inactive: 1.68.
`COC1=C(OC)C(=O)/C(=C2/C(C)=C(C(=O)O)NC(c3ccc4c(n3)C(=O)C(N)=C(OC)C4=O)=C2N)C=C1` [Streptonigrin from streptomyces flocculus]: for the setting “compound concentration: 2 uM”, the TEAD-luciferase reporter activity is inactive: -1.92.
In the case of `COC1=C(OC)C(=O)/C(=C2/C(C)=C(C(=O)O)NC(c3ccc4c(n3)C(=O)C(N)=C(OC)C4=O)=C2N)C=C1` [Streptonigrin from Streptomyces flocculus], the TEAD-luciferase reporter activity (compound concentration: 200 nM) was inactive: -1.36 and the TEAD-luciferase reporter activity (compound concentration: 10 uM) is inactive: -2.84.
On to `O=C1CN=C(C2=CCCCC2)c2cc(Cl)ccc2N1`, for which the TEAD-luciferase reporter activity reads like this: (compound concentration: 200 nM) inactive: -1.03; (compound concentration: 2 uM) inactive: -1.3; (compound concentration: 10 uM) inactive: 0.837.
As to `C[N+]1(C)[C@@H]2CC[C@H]1C[C@@H](CC(C#N)(c1ccccc1)c1ccccc1)C2`, the TEAD-luciferase reporter activity reads like this: (compound concentration: 200 nM) inactive: 0.452; (compound concentration: 2 uM) inactive: -0.253; (compound concentration: 10 uM) inactive: 0.712.
On to `N#Cc1c(Oc2cccc(OS(=O)(=O)CCCC(F)(F)F)c2)cccc1C(F)(F)F`, for which the TEAD-luciferase reporter activity reads like this: (compound concentration: 200 nM) inactive: 1.46; (compound concentration: 2 uM) inactive: 2.12; (compound concentration: 10 uM) inactive: -0.781.
As to `N#CC(CCN1CCC(C(N)=O)(N2CCCCC2)CC1)(c1ccccc1)c1ccccc1`, the TEAD-luciferase reporter activity is inactive: -0.556 (compound concentration: 200 nM), inactive: 0.338 (compound concentration: 2 uM) and inactive: -0.693 (compound concentration: 10 uM).
On the same counts, the results for `CN(C)CCNc1nc2cc(O)ccc2c2c1C(=O)c1ccccc1-2` are inactive: -0.897, inactive: -0.0883 and inactive: 1.24.
For `NCCc1ccc2c(c1)OCO2`, the TEAD-luciferase reporter activity was inactive: 0.41 (compound concentration: 200 nM), inactive: 0.466 (compound concentration: 2 uM) and inactive: 1.14 (compound concentration: 10 uM).
Taken in the same sequence, the figures for `Cc1ccc2c(c1)N1CCN(C)CC1c1ccccc1O2` (configuration not stated) were inactive: -1.38, inactive: -1.08 and inactive: 2.49.
In the case of `Oc1cc(Cl)ccc1Oc1ccc(Cl)cc1Cl` [Triclosan], under “compound concentration: 2 uM”, the TEAD-luciferase reporter activity is inactive: -1.25.
On to `Oc1cc(Cl)ccc1Oc1ccc(Cl)cc1Cl` [Triclosan3380-34-5], for which the TEAD-luciferase reporter activity by setting is: (compound concentration: 200 nM) inactive: -2.85; (compound concentration: 10 uM) inactive: 0.0128.
Take `CCn1cc(C(=O)O)c(=O)c2cc3c(cc21)OCO3`: the TEAD-luciferase reporter activity was inactive: -0.624 (compound concentration: 200 nM), inactive: -1.21 (compound concentration: 2 uM) and active: 5.76 (compound concentration: 10 uM).
Regarding `O=C(C[C@@H]1NCCC[C@H]1O)Cn1cnc2cc(Br)c(Cl)cc2c1=O` [halofugi], the TEAD-luciferase reporter activity (compound concentration: 2 uM) was inactive: -2.22.
Turning to `O=C(C[C@@H]1NCCC[C@H]1O)Cn1cnc2cc(Br)c(Cl)cc2c1=O` [halofugi, Hadasit], for the setting “compound concentration: 200 nM”, the TEAD-luciferase reporter activity was inactive: 0.806.
Regarding `O=C(C[C@@H]1NCCC[C@H]1O)Cn1cnc2cc(Br)c(Cl)cc2c1=O` [halofugi  , Hadasit], the TEAD-luciferase reporter activity (compound concentration: 10 uM) was inactive: -0.847.
`CCCCCCCCCCCCCCCCS(=O)(=O)N1CCc2c(sc3c2C(c2ccccc2Cl)=NCc2nnc(C)n2-3)C1`: the TEAD-luciferase reporter activity is inactive: 0.513 (compound concentration: 200 nM), inactive: -1.73 (compound concentration: 2 uM) and inactive: -1.28 (compound concentration: 10 uM).
Taken in the same sequence, the figures for `CNC(=O)N(C)N=O` [Dimethynur] were inactive: 0.855, inactive: 0.0257 and inactive: -0.451.
On the same counts, the results for `COc1ccc(C(OCCN2CCN(CCCC(=O)c3ccc(F)cc3)CC2)c2ccccc2)cc1` (configuration not stated) [mobenzoxamine] are inactive: 2.8, inactive: 0.147 and inactive: 3.17.
On the same counts, the results for `C=CCN1CC[C@]23c4c5ccc(O)c4O[C@H]2C(=O)CCC3(O)C1C5` (some centres not stated) [Naloxon] are inactive: 0.968, inactive: -1.1 and inactive: 0.831.
On to `COc1ccc2c(c1O)CNCC2c1ccc(O)c(O)c1` (configuration not stated), for which the TEAD-luciferase reporter activity (compound concentration: 200 nM) is inactive: -0.829, the TEAD-luciferase reporter activity (compound concentration: 2 uM) is inactive: -1.16 and the TEAD-luciferase reporter activity (compound concentration: 10 uM) was inactive: 2.57.
As for `CN1C(=O)C(O)N=C(c2ccccc2)c2cc(Cl)ccc21` (configuration not stated) [Temazepam], the TEAD-luciferase reporter activity reads like this: (compound concentration: 200 nM) inactive: -0.686; (compound concentration: 10 uM) inactive: -1.12.
Consider `Cc1ccc(C(=O)N2CCCC2C(=O)N2CCC(N3CCOCC3=O)CC2)cc1` (configuration not stated), for which the TEAD-luciferase reporter activity is inactive: -2.08 (compound concentration: 200 nM) and inactive: -0.25 (compound concentration: 10 uM).
